Laboratory results taken from paper PMC5424161.
These are yes or no findings as the source states them, for the method shown. Binding seen in cells or lysates may run through a third protein. Some results given as binding are weak or reduced against the parent protein; the word gives no strength.

Amino acid sequences for entries named in this document (tags omitted).
UniProt P16220: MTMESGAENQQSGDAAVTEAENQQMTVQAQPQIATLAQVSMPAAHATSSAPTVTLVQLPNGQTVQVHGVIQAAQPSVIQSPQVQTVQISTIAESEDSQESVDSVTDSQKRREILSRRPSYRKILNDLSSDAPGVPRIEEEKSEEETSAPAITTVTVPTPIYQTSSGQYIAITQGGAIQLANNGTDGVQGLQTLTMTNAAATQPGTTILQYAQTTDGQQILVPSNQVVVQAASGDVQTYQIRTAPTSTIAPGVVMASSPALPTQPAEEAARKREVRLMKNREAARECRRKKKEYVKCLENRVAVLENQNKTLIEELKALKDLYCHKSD
UniProt P46937: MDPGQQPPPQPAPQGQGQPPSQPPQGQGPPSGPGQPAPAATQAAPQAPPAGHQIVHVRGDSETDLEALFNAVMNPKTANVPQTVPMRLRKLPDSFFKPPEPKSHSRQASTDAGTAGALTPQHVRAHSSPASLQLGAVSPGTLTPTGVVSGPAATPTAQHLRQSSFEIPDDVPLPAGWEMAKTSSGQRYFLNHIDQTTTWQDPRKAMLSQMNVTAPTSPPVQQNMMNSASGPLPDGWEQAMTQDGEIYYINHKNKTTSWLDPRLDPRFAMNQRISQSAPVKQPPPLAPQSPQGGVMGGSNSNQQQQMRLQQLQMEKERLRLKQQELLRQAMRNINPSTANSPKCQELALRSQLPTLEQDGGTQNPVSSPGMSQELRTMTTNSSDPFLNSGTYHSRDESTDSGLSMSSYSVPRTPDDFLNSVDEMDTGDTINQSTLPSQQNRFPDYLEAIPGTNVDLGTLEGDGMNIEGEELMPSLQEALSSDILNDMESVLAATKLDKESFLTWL

Columns and labels:
CREB-HA = CREB-HA (UniProt P16220); experiment: co-IP; YAP-FLAG co-transfected with TEAD4-Myc or CREB-HA into Bel-7402 cells, with or without OGT overexpression; IP with anti-Myc or anti-HA antibodies, blot for YAP-FLAG; a co-IP under rising glucose concentrations (Supplementary Fig. 9c) is taken with it
[1] = biological target: Yes-associated protein (YAP), endogenous (human (endogenous in Bel-7402 and SMMC-7721)) (UniProt P46937); experiment: proximity ligation; Duolink in situ red starter kit (mouse/rabbit) on cells fixed with 4% paraformaldehyde; primary antibodies anti-YAP and anti-OGT; signal if the probes are <40 nm apart
[2] = biological target: Yes-associated protein (YAP), endogenous (human (endogenous in Bel-7402 and SMMC-7721)) (UniProt P46937); experiment: co-IP; IP with anti-YAP antibodies from cell lysate, blot for OGT; cell line not given

Row | binding (CREB-HA) | binding [1] | binding [2] | Molecule
1 | binds | – | – | YAP-FLAG, wild type (from UniProt P46937 1-504)
2 | – | binds | binds | O-GlcNAc transferase (OGT), endogenous (enzyme, UniProt O15294 1-1046) MASSVGNVADSTEPTKRMLSFQGLAELAHREYQAGDFEAAERHCMQLWRQEPDNTGVLLLLSSIHFQCRRLDRSAHFSTLAIKQNPLLAEAYSNLGNVYKERGQLQEAIEHYRHALRLKPDFIDGYINLAAALVAAGDMEGAVQAYVSALQYNPDLYCVRSDLGNLLKALGRLEEAKACYLKAIETQPNFAVAWSNLGCVFNAQGEIWLAIHHFEKAVTLDPNFLDAYINLGNVLKEARIFDRAVAAYLRALSLSPNHAVVHGNLACVYYEQGLIDLAIDTYRRAIELQPHFPDAYCNLANALKEKGSVAEAEDCYNTALRLCPTHADSLNNLANIKREQGNIEEAVRLYRKALEVFPEFAAAHSNLASVLQQQGKLQEALMHYKEAIRISPTFADAYSNMGNTLKEMQDVQGALQCYTRAIQINPAFADAHSNLASIHKDSGNIPEAIASYRTALKLKPDFPDAYCNLAHCLQIVCDWTDYDERMKKLVSIVADQLEKNRLPSVHPHHSMLYPLSHGFRKAIAERHGNLCLDKINVLHKPPYEHPKDLKLSDGRLRVGYVSSDFGNHPTSHLMQSIPGMHNPDKFEVFCYALSPDDGTNFRVKVMAEANHFIDLSQIPCNGKAADRIHQDGIHILVNMNGYTKGARNELFALRPAPIQAMWLGYPGTSGALFMDYIITDQETSPAEVAEQYSEKLAYMPHTFFIGDHANMFPHLKKKAVIDFKSNGHIYDNRIVLNGIDLKAFLDSLPDVKIVKMKCPDGGDNADSSNTALNMPVIPMNTIAEAVIEMINRGQIQITINGFSISNGLATTQINNKAATGEEVPRTIIVTTRSQYGLPEDAIVYCNFNQLYKIDPSTLQMWANILKRVPNSVLWLLRFPAVGEPNIQQYAQNMGLPQNRIIFSPVAPKEEHVRRGQLADVCLDTPLCNGHTTGMDVLWAGTPMVTMPGETLASRVAASQLTCLGCLELIAKNRQEYEDIAVKLGTDLEYLKKVRGKVWKQRISSPLFNTKQYTMELERLYLQMWEHYAAGNKPDHMIKPVEVTESA
